Data as given in PubChem BioAssay AID1224829 (NIAID, 2016).
This is an unselected part of about 3,800 reagents tested. 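Calls cover raised and lowered translocation; gene median uses one vendor's three siRNAs; qiagen siRNAs acted more weakly than ambion siRNAs.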 A number with no mark means an inactive call. Reagents against one gene are numbered here. Further read-outs or replicates are left out here.

Purpose: 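Secondary check of hits that alter LPS-induced p65 translocation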 (follow-up of hits)
System: mouse RAW264.7 G9 macrophage reporter cells
Reagents: single siRNA against mouse genes, 100 nM
Timing: 2 days of siRNA knock-down, then 40 min of LPS before fixing
Conditions: LPS (Salmonella minnesota R595) at 10 ng/ml
Measurement: 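High-content images after 40 min LPS exposure; GFP-p65 nucleus to surrounding ring signal ratio, normalised to plate median and non-targeting control wells, expressed as z-score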
Reading the numbers: p65 translocation z-score: higher = more nuclear NF-kappaB p65 after LPS
Active means: 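An siRNA is called active when the mean z-score of its two replicates is above 2 or below -2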
Meaning of the calls: active = changed p65 translocation (either direction); inactive = no clear change

gene symbol | siRNA no. | siRNA vendor or control pool | p65 translocation z-score, replicate mean
Washc2 | 1 | ambion single siRNA | -3.64 (active)
Washc2 | 2 | ambion single siRNA | -5.69 (active)
Washc2 | 3 | ambion single siRNA | -4.59 (active)
Washc2 | 4 | qiagen single siRNA | 1.96
Washc2 | 5 | qiagen single siRNA | 0.369
Washc2 | 6 | qiagen single siRNA | -1.27
Fasl | 1 | ambion single siRNA | -0.618
Fasl | 2 | ambion single siRNA | -3.86 (active)
Fasl | 3 | ambion single siRNA | -1.34
Fasl | 4 | qiagen single siRNA | 2.46 (active)
Fasl | 5 | qiagen single siRNA | -0.234
Fasl | 6 | qiagen single siRNA | -0.742
Vmn1r6 | 1 | ambion single siRNA | 2.85 (active)
Vmn1r6 | 2 | ambion single siRNA | -4.67 (active)
Vmn1r6 | 3 | ambion single siRNA | -5.65 (active)
Slc10a4 | 1 | ambion single siRNA | -1.08
Slc10a4 | 2 | ambion single siRNA | 0.935
Slc10a4 | 3 | ambion single siRNA | -0.0389
Slc10a4 | 4 | qiagen single siRNA | 1.75
Slc10a4 | 5 | qiagen single siRNA | -0.0525
Slc10a4 | 6 | qiagen single siRNA | -1.2
Tec | 1 | ambion single siRNA | -5.71 (active)
Tec | 2 | ambion single siRNA | -1.91
Tec | 3 | ambion single siRNA | -3.91 (active)
Tec | 4 | qiagen single siRNA | -0.225
Tec | 5 | qiagen single siRNA | 1.12
Tec | 6 | qiagen single siRNA | -0.0677

In a second layout: 7 of the entries above
gene symbol	siRNA no.	siRNA vendor or control pool	p65 translocation z-score, replicate mean
Fasl	1	ambion single siRNA	-0.618
Fasl	2	ambion single siRNA	-3.86 (active)
Fasl	3	ambion single siRNA	-1.34
Fasl	4	qiagen single siRNA	2.46 (active)
Fasl	5	qiagen single siRNA	-0.234
Fasl	6	qiagen single siRNA	-0.742
Vmn1r6	1	ambion single siRNA	2.85 (active)

Additional results:
gene symbol | siRNA no. | siRNA vendor or control pool | p65 translocation z-score, replicate mean
Hmga1 | 1 | ambion single siRNA | -3.57 (active)
Hmga1 | 2 | ambion single siRNA | 0.821
Hmga1 | 3 | ambion single siRNA | -4.36 (active)
Hmga1 | 4 | qiagen single siRNA | -1.65
Hmga1 | 5 | qiagen single siRNA | 2.84 (active)
Hmga1 | 6 | qiagen single siRNA | 1.94
Sh2d1a | 1 | ambion single siRNA | 0.735
Sh2d1a | 2 | ambion single siRNA | -0.258
Sh2d1a | 3 | ambion single siRNA | -0.494
Sh2d1a | 4 | qiagen single siRNA | -0.294
Sh2d1a | 5 | qiagen single siRNA | 0.037
Sh2d1a | 6 | qiagen single siRNA | -4.82 (active)
Cct8l1 | 1 | ambion single siRNA | -1.11
Cct8l1 | 2 | ambion single siRNA | -1.94
Cct8l1 | 3 | ambion single siRNA | -3.56 (active)
Cct8l1 | 4 | qiagen single siRNA | 0.17
Cct8l1 | 5 | qiagen single siRNA | 0.0277
Cct8l1 | 6 | qiagen single siRNA | 0.533
Mrps10 | 1 | ambion single siRNA | 0.45
Mrps10 | 2 | ambion single siRNA | -0.914
Mrps10 | 3 | ambion single siRNA | -3.82 (active)
Mrps10 | 4 | qiagen single siRNA | 1.94
Mrps10 | 5 | qiagen single siRNA | 1.87
Mrps10 | 6 | qiagen single siRNA | 2.49 (active)
Sv2a | 1 | ambion single siRNA | 3.87 (active)
Sv2a | 2 | ambion single siRNA | -2.64 (active)
Sv2a | 3 | ambion single siRNA | -0.202
Sv2a | 4 | qiagen single siRNA | 1.45
Sv2a | 5 | qiagen single siRNA | 3.09 (active)
Sv2a | 6 | qiagen single siRNA | 2.06 (active)
Ppp1r3c | 1 | ambion single siRNA | 2.59 (active)
Ppp1r3c | 2 | ambion single siRNA | -1.12
Ppp1r3c | 3 | ambion single siRNA | -0.0805
Ppp1r3c | 4 | qiagen single siRNA | 1.59
Ppp1r3c | 5 | qiagen single siRNA | 1.84
Ppp1r3c | 6 | qiagen single siRNA | 2.05 (active)
Inhca | 1 | ambion single siRNA | -1.21
Inhca | 2 | ambion single siRNA | -1.19
Inhca | 3 | ambion single siRNA | -1.95
Inhca | 4 | qiagen single siRNA | 2.62 (active)
Inhca | 5 | qiagen single siRNA | -0.657
Inhca | 6 | qiagen single siRNA | -4.37 (active)
